Earlier results as cited in patent publication US8846665B2, “6,7-dihydro-[1,3,4]thiadiazolo-[3,2-a][1,3]diazepin derivative and pharmaceutical composition containing the same as neuromuscular blocker or skeletal muscle relaxant, and method for the preparation” (King Saud University, priority 2011, dated 2014).
Like-named read-outs stand apart in the source and are kept apart here. Some of these results come from one statement about several compounds together.

Settings: cited from earlier work; for Onset of action: following bolus i.v. administration

| SMILES | Onset of action (literature classification) | Duration (literature classification) | Duration (following bolus injections at 0.5-2 mg/kg i.v.) |
| --- | --- | --- | --- |
| COc1ccc(CC2c3cc(OC)c(OC)cc3CC[N+]2(C)CCC(=O)OCCCCCOC(=O)CC[N+]2(C)CCc3cc(OC)c(OC)cc3C2Cc2ccc(OC)c(OC)c2)cc1OC (centres unmarked) [Atracurium] | up to 5 minutes | up to 60 minutes | – |
| COc1ccc(C[C@@H]2c3cc(OC)c(OC)cc3CC[N@+]2(C)CCC(=O)OCCCCCOC(=O)CC[N@@+]2(C)CCc3cc(OC)c(OC)cc3[C@H]2Cc2ccc(OC)c(OC)c2)cc1OC [Cisatracurium] | up to 5 minutes | up to 60 minutes | – |
| COc1cc(CC2c3c(cc(OC)c(OC)c3OC)CC[N+]2(C)CCCOC(=O)CCC(=O)OCCC[N+]2(C)CCc3cc(OC)c(OC)c(OC)c3C2Cc2cc(OC)c(OC)c(OC)c2)cc(OC)c1OC (centres unmarked) [Doxacurium] | up to 6 minutes | 75 to 100 min | – |
| CC(=O)O[C@H]1C[C@]2(C)CC[C@H]3[C@@H]4C[C@H](N5CC[N+](C)(C)CC5)[C@H](OC(C)=O)[C@@]4(C)CC[C@@H]3[C@@]2(C)C[C@@H]1N1CC[N+](C)(C)CC1 [Pipercuronium] | up to 6 minutes | 75 to 100 min | – |
| C=CC[N+]1([C@H]2C[C@H]3[C@@H]4CC[C@H]5C[C@H](O)[C@@H](N6CCOCC6)C[C@]5(C)[C@H]4CC[C@]3(C)[C@H]2OC(C)=O)CCCC1 [Rocuronium] | ≤ 2 min | up to 20 minutes | – |
| C[N+](C)(C)CCOC(=O)CCC(=O)OCC[N+](C)(C)C [Succinylcholine] | – | – | up to 5 minutes |
